In doi:10.1101/2021.09.16.460581:
These are yes or no findings as the source states them, for the method shown. In cells and extracts the contact can be indirect. Here binding means that the protein was enriched with, or labelled near, the bait; the list need not be complete. Where a sequence is shown, tags or fusion partners need not be part of it.

T1: Mrc1-YFP (S. cerevisiae) (UniProt P25588)
T1 sequence: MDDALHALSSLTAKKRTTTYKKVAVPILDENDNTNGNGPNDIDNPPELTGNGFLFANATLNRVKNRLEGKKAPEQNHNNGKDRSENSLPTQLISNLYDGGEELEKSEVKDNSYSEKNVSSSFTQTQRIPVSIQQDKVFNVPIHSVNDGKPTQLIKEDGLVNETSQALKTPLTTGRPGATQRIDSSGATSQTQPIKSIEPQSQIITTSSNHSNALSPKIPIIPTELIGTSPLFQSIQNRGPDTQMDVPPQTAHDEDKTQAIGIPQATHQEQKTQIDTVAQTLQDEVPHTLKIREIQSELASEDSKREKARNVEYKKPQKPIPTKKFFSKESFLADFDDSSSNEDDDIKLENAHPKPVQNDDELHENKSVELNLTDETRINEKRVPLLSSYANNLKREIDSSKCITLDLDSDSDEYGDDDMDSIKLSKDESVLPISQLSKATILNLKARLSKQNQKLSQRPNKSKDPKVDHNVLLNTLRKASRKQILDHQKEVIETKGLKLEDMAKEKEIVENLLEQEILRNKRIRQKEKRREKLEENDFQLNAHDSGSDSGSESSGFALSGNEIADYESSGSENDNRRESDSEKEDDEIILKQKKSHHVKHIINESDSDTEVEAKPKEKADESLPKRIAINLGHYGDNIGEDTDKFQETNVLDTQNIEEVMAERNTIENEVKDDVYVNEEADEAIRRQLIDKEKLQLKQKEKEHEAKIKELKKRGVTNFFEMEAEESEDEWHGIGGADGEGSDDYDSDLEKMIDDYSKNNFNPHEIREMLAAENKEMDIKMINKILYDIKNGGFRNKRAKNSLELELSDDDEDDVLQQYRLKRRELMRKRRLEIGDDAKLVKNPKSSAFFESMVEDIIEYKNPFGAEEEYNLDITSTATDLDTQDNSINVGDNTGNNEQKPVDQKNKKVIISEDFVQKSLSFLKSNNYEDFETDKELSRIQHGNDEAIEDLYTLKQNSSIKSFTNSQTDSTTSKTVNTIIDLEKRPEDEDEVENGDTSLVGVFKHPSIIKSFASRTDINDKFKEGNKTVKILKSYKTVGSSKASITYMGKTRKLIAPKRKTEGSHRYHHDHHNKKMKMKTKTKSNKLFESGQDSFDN


These binders were tested against T1, Mrc1-YFP (S. cerevisiae) (assay: affinity purification with mass spectrometry).

binding | Binder
binds | Ckb1 (protein, UniProt P43639 1-278) MSQEFVEDYSRTGSSDDEDSGAYDEWIPSFCSRFGHEYFCQVPTEFIEDDFNMTSLSQEVPHYRKALDLILDLEAMSDEEEDEDDVVEEDEVDQEMQSNDGHDEGKRRNKSPVVNKSIIEHAAEQLYGLIHARFILTKPGLQAMAEKFDHKEFGTCPRYYCNGMQLLPCGLSDTVGKHTVRLYCPSCQDLYLPQSSRFLCLEGAFWGTSFPGVFLKHFKELEEYVERKSKESYELKVFGFRINDEAVSGPRMKWLRQYPSTEEDWEEFAKCEFETPAV
binds | Hrt1 (protein, UniProt Q08273 1-121) MSNEVDRMDVDEDESQNIAQSSNQSAPVETKKKRFEIKKWTAVAFWSWDIAVDNCAICRNHIMEPCIECQPKAMTDTDNECVAAWGVCNHAFHLHCINKWIKTRDACPLDNQPWQLARCGR
binds | Rad5 (protein, UniProt P32849 1-1169) MSHIEQEERKRFFNDDLDTSETSLNFKSENKESFLFANSHNDDDDDVVVSVSDTTEGEGDRSIVPVRREIEEEGQNQFITELLRIIPEMPKDLVMELNEKFGSQEEGLSLALSHYFDHNSGTSISKIPSSPNQLNTLSDTSNSTLSPSSFHPKRRRIYGFRNQTRLEDKVTWKRFIGALQVTGMATRPTVRPLKYGSQMKLKRSSEEISATKVYDSRGRKKASMASLVRIFDIQYDREIGRVSEDIAQILYPLLSSHEISFEVTLIFCDNKRLSIGDSFILQLDCFLTSLIFEERNDGESLMKRRRTEGGNKREKDNGNFGRTLTETDEELESRSKRLALLKLFDKLRLKPILDEQKALEKHKIELNSDPEIIDLDNDEICSNQVTEVHNNLRDTQHEEETMNLNQLKTFYKAAQSSESLKSLPETEPSRDVFKLELRNYQKQGLTWMLRREQEFAKAASDGEASETGANMINPLWKQFKWPNDMSWAAQNLQQDHVNVEDGIFFYANLHSGEFSLAKPILKTMIKGGILSDEMGLGKTVAAYSLVLSCPHDSDVVDKKLFDIENTAVSDNLPSTWQDNKKPYASKTTLIVVPMSLLTQWSNEFTKANNSPDMYHEVYYGGNVSSLKTLLTKTKTPPTVVLTTYGIVQNEWTKHSKGRMTDEDVNISSGLFSVNFYRIIIDEGHNIRNRTTVTSKAVMALQGKCKWVLTGTPIINRLDDLYSLVKFLELDPWRQINYWKTFVSTPFESKNYKQAFDVVNAILEPVLLRRTKQMKDKDGKPLVELPPKEVVIKRLPFSKSQDLLYKFLLDKAEVSVKSGIARGDLLKKYSTILVHILRLRQVCCHPGLIGSQDENDEDLSKNNKLVTEQTVELDSLMRVVSERFDNSFSKEELDAMIQRLKVKYPDNKSFQSLECSICTTEPMDLDKALFTECGHSFCEKCLFEYIEFQNSKNLGLKCPNCRNQIDACRLLALVQTNSNSKNLEFKPYSPASKSSKITALLKELQLLQDSSAGEQVVIFSQFSTYLDILEKELTHTFSKDVAKIYKFDGRLSLKERTSVLADFAVKDYSRQKILLLSLKAGGVGLNLTCASHAYMMDPWWSPSMEDQAIDRLHRIGQTNSVKVMRFIIQDSIEEKMLRIQEKKRTIGEAMDTDEDERRKRRIEEIQMLFE
binds | Dia2 (protein, UniProt Q08496 1-732) MSSPGNSGVAIDSTVLKAIELGTRLFKSGEYLQAKRIFTNALRVCDSYSQEQIMRIRNAYQLDTARPDNKRLYHPRYIKILDNICACYEKLNDLKSCLDVSQRLLKLEPGNIKCYIRCTRTLIKLKDWKRAYKTCSRGLQLCNNDSNHLRQQKQFIKNNMVQKQDGKRSYIDPLEETKIAKKKKNNNVLESLPKKKIKGSTKKTDLVGNLPIEILPIIFQRFTTKELVTLSLVCNKWRDKILYHLDCFQEFNLAPINFKNFVKFMDFLQQNFTRTYRKYILSQVKVSSRITSEELRITQLLFSKMPKCINIERLILSMPTLTTTQIFKLMVRGGTDFFTRLLELSLMITYRPDKQHELEILQTCPLLKKIELIFVNSLVPIFDGNNSVGRDGSFNVMARHTNMQISTADNDEQGIVEEKVIYSELEKITLICDKKKIKNFPLCRALLRGQFPLLQKLTITGVTFPMNNQDIMNFQWLLNFPDLKELWIEDNDNCELSKFLQLLKFSNVWKNLEKLTFRENKLYPIVNLDEDQPVTNDDEVPSMLFYKENLQNLEKLDLMGTSISGSALTRLCEQEYLDGRKLRSLNIGNCPNIQFPNNHAHTARMILDVNAVLKRLSKLEEINLSHLSSLNDSTMKSFIINVPFLENLKRLDISHNFEITGISIYEFLKKFQMDHDNEAGGQPLAYLNIDGCSQVSHITVNMIRAQNLVTQVDCVYERDVWRKFGINSYSYS
binds | Rrm3 (protein, UniProt P38766 1-723) MFRSHASGNKKQWSKRSSNGSTPAASASGSHAYRQQTLSSFFMGCGKKSAAASKNSTTIIDLESGDEGNRNITAPPRPRLIRNNSSSLFSQSQGSFGDDDPDAEFKKLVDVPRLNSYKKSSRSLSMTSSLHKTASASTTQKTYHFDEDETLREVTSVKSNSRQLSFTSTINIEDSSMKLSTDSERPAKRSKPSMEFQGLKLTVPKKIKPLLRKTVSNMDSMNHRSASSPVVLTMEQERVVNLIVKKRTNVFYTGSAGTGKSVILQTIIRQLSSLYGKESIAITASTGLAAVTIGGSTLHKWSGIGIGNKTIDQLVKKIQSQKDLLAAWRYTKVLIIDEISMVDGNLLDKLEQIARRIRKNDDPFGGIQLVLTGDFFQLPPVAKKDEHNVVKFCFESEMWKRCIQKTILLTKVFRQQDNKLIDILNAIRYGELTVDIAKTIRNLNRDIDYADGIAPTELYATRREVELSNVKKLQSLPGDLYEFKAVDNAPERYQAILDSSLMVEKVVALKEDAQVMMLKNKPDVELVNGSLGKVLFFVTESLVVKMKEIYKIVDDEVVMDMRLVSRVIGNPLLKESKEFRQDLNARPLARLERLKILINYAVKISPHKEKFPYVRWTVGKNKYIHELMVPERFPIDIPRENVGLERTQIPLMLCWALSIHKAQGQTIQRLKVDLRRIFEAGQVYVALSRAVTMDTLQVLNFDPGKIRTNERVKDFYKRLETLK
binds | Cka2 (protein, UniProt P19454 1-339) MPLPPSTLNQKSNRVYSVARVYKNACEERPQEYWDYEQGVTIDWGKISNYEIINKIGRGKYSEVFSGRCIVNNQKCVIKVLKPVKMKKIYRELKILTNLTGGPNVVGLYDIVQDADSKIPALIFEEIKNVDFRTLYPTFKLPDIQYYFTQLLIALDYCHSMGIMHRDVKPQNVMIDPTERKLRLIDWGLAEFYHPGVDYNVRVASRYHKGPELLVNLNQYDYSLDLWSVGCMLAAIVFKKEPFFKGSSNPDQLVKIATVLGTKELLGYLGKYGLHLPSEYDNIMRDFTKKSWTHFITSETKLAVPEVVDLIDNLLRYDHQERLTAKEAMDHKFFKTKFE
binds | Ckb2 (protein, UniProt P38930 1-258) MGSRSENVGTVTREGSRVEQDDVLMDDDSDSSEYVDMWIDLFLGRKGHEYFCDVDPEYITDRFNLMNLQKTVSKFSYVVQYIVDDLDDSILENMTHARLEQLESDSRKLYGLIHARYIITIKGLQKMYAKYKEADFGRCPRVYCNLQQLLPVGLHDIPGIDCVKLYCPSCEDLYIPKSSRHSSIDGAYFGTSFPGMFLQAFPDMVPKHPTKRYVPKIFGFELHKQAQLTRWQELQRLKLVEKLESKDVDLTKSGGFKT
